Test results reported in patent publication US20210230287A1.
These are yes or no findings as the source states them, for the method shown. Some entries that bind do so weakly or less than the wild type.

Sequences of proteins named here, by UniProt entry; tags and fusion partners are left off. A change or cut given only in a name is not applied to a line headed by its entry. Residues count along the entry.
UniProt Q07011: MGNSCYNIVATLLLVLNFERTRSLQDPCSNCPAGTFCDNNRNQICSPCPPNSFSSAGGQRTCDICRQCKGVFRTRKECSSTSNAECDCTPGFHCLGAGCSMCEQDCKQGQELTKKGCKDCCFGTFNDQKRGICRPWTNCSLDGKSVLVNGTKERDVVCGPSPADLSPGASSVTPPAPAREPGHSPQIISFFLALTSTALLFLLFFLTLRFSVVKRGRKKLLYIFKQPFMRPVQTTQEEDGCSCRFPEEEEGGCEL
UniProt P20334, residues 24-256: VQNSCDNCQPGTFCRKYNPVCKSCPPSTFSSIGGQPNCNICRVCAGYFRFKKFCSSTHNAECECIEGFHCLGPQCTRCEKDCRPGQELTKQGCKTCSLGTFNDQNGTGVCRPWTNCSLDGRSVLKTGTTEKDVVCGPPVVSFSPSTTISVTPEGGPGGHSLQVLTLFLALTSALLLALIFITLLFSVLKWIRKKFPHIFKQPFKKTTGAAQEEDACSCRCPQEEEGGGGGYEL

Columns and labels:
[1] = biological target: human 4-1BB, full-length, on cells (human) (UniProt Q07011); assay: flow cytometry on human 4-1BB-expressing CHO-K1 cells, PE goat anti-human IgG Fc, MFI
[2] = biological target: mouse 4-1BB, full-length, on cells (mouse) (UniProt P20334); assay: flow cytometry on murine 4-1BB CHO-K1 cells
[3] = biological target: human 4-1BB, full-length, on cells (human) (UniProt Q07011); assay: ligand competition by flow cytometry on human 4-1BB-expressing CHO-K1 cells; blocked ligand: human 4-1BBL-His at constant concentration, detected with anti-His-biotin and PE-streptavidin, MFI
[4] = biological target: mouse 4-1BB, full-length, on cells (mouse) (UniProt P20334); assay: flow cytometry on murine 4-1BB-expressing CHO-K1 cells, PE goat anti-human IgG Fc, MFI
[5] = biological target: human 4-1BB protein (coated on ELISA plates) (human) (UniProt Q07011); assay: ELISA on plate-coated antigen, HRP goat anti-human IgG Fc, OD450-OD540; antibody concentration not given
[6] = biological target: human 4-1BB, full-length, on cells (human) (UniProt Q07011); assay: flow cytometry on human 4-1BB CHO-K1 cells
[7] = biological target: human 4-1BB protein (coated on ELISA plates) (human) (UniProt Q07011); assay: competition ELISA on plate-coated human 4-1BB; competitor: biotinylated BMK4, detected with streptavidin-HRP, OD450-OD540
[8] = biological target: human 4-1BB, full-length, on cells (human) (UniProt Q07011); assay: flow cytometry on PMA/ionomycin-activated human T cells
[9] = biological target: human 4-1BB, full-length, on cells (human) (UniProt Q07011); assay: flow cytometry on activated human T cells (PMA and ionomycin, 48 h), PE goat anti-human IgG Fc, MFI
[10] = biological target: human 4-1BB protein (coated on ELISA plates) (human) (UniProt Q07011); assay: ELISA, cross-family test

Measured: binding

B1: 2.19.8-u1-3-hIgG1L (antibody, V domains shown)
VH: QVQLVESGGGLVKPGGSLRLSCAASGFTFSDYFMSWIRQAPGKGLEWVSYISNAGSSKYYADSVKGRFTISRDNAKNSLYLQMNSLRAEDTAVYYCVRDPYSGSYSGWFDPWGQGTLVTVSS
VL: SYDLTQPPSVSVSPGQTASITCSGDDLGDKYTSWYQQKPGQSPVLVVYQDHKRPSGIPERFSGSNSGNTATLTISGTQAMDEADYYCQAWDKGIVVFGGGTKLTVL
binds: all assays above

B2: 2.19.8-u1-3-hIgG4L (antibody, V domains shown)
VH: QVQLVESGGGLVKPGGSLRLSCAASGFTFSDYFMSWIRQAPGKGLEWVSYISNAGSSKYYADSVKGRFTISRDNAKNSLYLQMNSLRAEDTAVYYCVRDPYSGSYSGWFDPWGQGTLVTVSS
VL: SYDLTQPPSVSVSPGQTASITCSGDDLGDKYTSWYQQKPGQSPVLVVYQDHKRPSGIPERFSGSNSGNTATLTISGTQAMDEADYYCQAWDKGIVVFGGGTKLTVL
binds: all assays above
